Some of the results follow. Further columns of the screen follow, without active or inactive calls. Most of these compounds were active or inconclusive in the main read-out, so they are no random draw. The note in brackets gives the kind of curve behind each potency; many fits are weak.
Experiment: qHTS Assay for Modulators of Lamin A Splicing
Details: HeLa LMNA splicing GFP/RFP minigene ratio, 48 h
How it was run: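 Read-out is the ratio of GFP to DsRed2 object intensity, acquired by 488 nm laser-scanning cytometry on HeLa lamin A-EGFP minigene reporter cells. Compound incubation 48 hrs at 37 °C in Opti-MEM with 2% FBS; DMSO 0.5% final.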

[1] = measured here: GFP splicing reporter channel
[2] = measured here: RFP viability control channel

Structure (SMILES): COc1cccc2[nH]c3c(N4CCC(C)CC4)ncnc3c12
- AC50 [1]: 3.55 µM [rising, partial curve, poor fit]
- AC50 [2]: 12.6 µM [rising, single point]

Structure (SMILES): CC1=CCC2C(=O)N(c3ccccc3OC(=O)c3ccccc3F)C(=O)C2C1 (stereo unspecified)
- AC50 [1]: 6.31 µM [rising, full curve, poor fit]
- AC50 [2]: 0.562 µM [rising, full curve, poor fit]

Structure (SMILES): CCn1c(SCC(=O)Nc2cc(F)ccc2C)nnc1-c1ccccc1O
- AC50 [2]: 35.5 µM [rising, single point]

Structure (SMILES): C[n+]1ccccc1/C=N\O
- AC50 [1]: 0.398 µM [falling, full curve, poor fit]

Structure (SMILES): CC(Oc1ccc(Cl)cc1Cl)c1nc(-c2ccc(NC(=O)c3ccncc3)cc2)no1 (stereo unspecified)
- AC50 [1]: 4.47 µM [rising, single point]
- AC50 [2]: 31.6 µM [rising, partial curve]

Structure (SMILES): COc1ccccc1CNC(=O)c1oc2c(c1C)-c1nn(Cc3ccc(Cl)cc3)cc1CC2
- AC50 [2]: 31.6 µM [rising, single point]

Structure (SMILES): CCc1cccc(NC(=O)c2ccc(NS(=O)(=O)c3c(C)noc3C)cc2)c1
- AC50 [1]: 35.5 µM [rising, single point]
- AC50 [2]: 31.6 µM [rising, single point]

Structure (SMILES): CC(C)N(Cc1nc(COc2ccccc2)no1)Cc1nccn1C
- AC50 [1]: 0.0224 µM [rising, full curve, poor fit]
- AC50 [2]: 0.0224 µM [rising, full curve, poor fit]

Structure (SMILES): Cc1ccc(SCCC(=O)N/N=C/c2cccnc2)cc1
- AC50 [2]: 1.12 µM [falling, full curve, poor fit]

Structure (SMILES): Cc1c(C(=O)Nc2ccncc2)oc2ccccc12
- AC50 [2]: 14.1 µM [rising, partial curve, poor fit]

Structure (SMILES): O=C(CCl)Nc1ccc(Oc2cnc3ccccc3n2)cc1
- AC50 [2]: 22.4 µM [falling, single point]

Structure (SMILES): Cc1ccccc1N1CCN(Cc2c(C#N)c3ccccc3n2C)CC1
- AC50 [2]: 35.5 µM [rising, single point]

Structure (SMILES): COc1ccc(O[C@H]2C=C[C@@H](c3ccccc3)O[C@@H]2COC(=O)CC/C(C)=N/OC[C@@H](O)COCc2ccco2)cc1
- AC50 [2]: 31.6 µM [rising, single point]

Structure (SMILES): O=C(NCC1CCCO1)C(c1ccc(F)cc1)N(CCCN1CCOCC1)C(=O)c1ccc(-c2ccccc2)[nH]1 (stereo unspecified)
- AC50 [1]: 35.5 µM [falling, partial curve]
- AC50 [2]: 35.5 µM [falling, partial curve, poor fit]

Structure (SMILES): O=c1c2cc3c(nc2ncn1Cc1ccccc1F)CCCC3
- AC50 [1]: 3.16 µM [falling, partial curve, poor fit]
- AC50 [2]: 15.8 µM [rising, single point]

Structure (SMILES): Cc1[nH]c2ccccc2c1/C=C/c1nc2ccccc2c(=O)n1CCO
- AC50 [2]: 35.5 µM [falling, single point]

Structure (SMILES): Cc1ccc(S(=O)(=O)NNC(=O)C(=O)NNS(=O)(=O)c2ccc(C)cc2)cc1
- AC50 [1]: 0.158 µM [falling, full curve, poor fit]
- AC50 [2]: 0.178 µM [falling, full curve, poor fit]

Structure (SMILES): Cc1cc(C)c2nc(/N=C(\N)NC(=O)Nc3ccccc3)nc(C)c2c1
- AC50 [2]: 15.8 µM [rising, partial curve]

Structure (SMILES): Cc1ccc(NC(=O)Nc2nnc(SCC(=O)N3CCC(C)CC3)s2)cc1
- AC50 [2]: 31.6 µM [rising, single point]

Structure (SMILES): COc1ccc(C)cc1-n1c(SCC(=O)Nc2cc(C)on2)nc2ccccc2c1=O
- AC50 [1]: 1 µM [falling, full curve, poor fit]
- AC50 [2]: 1.26 µM [falling, partial curve]

Structure (SMILES): O=C(CCCc1ccccc1)c1ccc2c(c1)OCCO2
- AC50 [2]: 14.1 µM [rising, partial curve, poor fit]

Structure (SMILES): CC(C)CCNC(=S)Nc1ccc([N+](=O)[O-])cc1
- AC50 [1]: 0.126 µM [rising, full curve]
- AC50 [2]: 11.2 µM [rising, partial curve]

Structure (SMILES): O=C(Nc1ccc(F)c(F)c1)c1ccc(F)c(S(=O)(=O)N2CCOCC2)c1
- AC50 [1]: 4.47 µM [rising, single point]
- AC50 [2]: 7.94 µM [rising, partial curve]

Structure (SMILES): COc1ccc2nc(Nc3nc(-c4ccncc4)cs3)sc2c1
- AC50 [1]: 35.5 µM [falling, single point]

Structure (SMILES): CSc1nc(Cl)c(Cc2ccc(OC(C)C)cc2)c(N(C)C)n1
- AC50 [2]: 11.2 µM [rising, single point]

Structure (SMILES): O=C(Nc1nc2c(s1)CCCC2)c1cc(-c2ccccc2)nc2ccccc12
- AC50 [2]: 20 µM [rising, single point]

Structure (SMILES): Cc1ccccc1NC(=O)CN1C(=O)N/C(=C\c2ccc(N3CCOCC3)c(F)c2)C1=O
- AC50 [1]: 7.94 µM [falling, partial curve]
- AC50 [2]: 5.62 µM [falling, partial curve, poor fit]

Structure (SMILES): COc1ccc(C(=O)NCCn2cc(SCC(=O)NCc3ccco3)c3ccccc32)cc1
- AC50 [2]: 31.6 µM [rising, single point]

Structure (SMILES): O=C(Nc1ccc(NC(=O)c2ccco2)nc1)c1ccccn1
- AC50 [2]: 3.16 µM [rising, single point]

Structure (SMILES): CCC(=O)N(Cc1cc2cc(OC)ccc2[nH]c1=O)c1cccc(C)c1
- AC50 [2]: 4.47 µM [rising, partial curve]

Structure (SMILES): CCOC(=O)c1c(C)[nH]c2cc(Br)c(OC)cc12
- AC50 [2]: 17.8 µM [rising, single point]

Structure (SMILES): Cc1cc(C(=O)COC(=O)c2n[nH]c3ccccc23)c(C)n1CC1CCCO1 (stereo unspecified)
- AC50 [1]: 20 µM [rising, single point]
- AC50 [2]: 20 µM [rising, single point]

Structure (SMILES): O=C1C=C(c2ccccc2)C[C@H](c2cccs2)[C@H]1n1nnc([N+](=O)[O-])n1
- AC50 [1]: 15.8 µM [falling, single point]

Structure (SMILES): Cc1ccc(CNC(=O)C2(c3cccs3)CCOCC2)cc1
- AC50 [2]: 0.0158 µM [falling, full curve, poor fit]

Structure (SMILES): CC1(C)CC[C@]2(C(=O)O)C(O)C[C@@]3(C)C(=CCC4[C@@]5(C)CCC(O)C(C)(C)C5CC[C@@]43C)C2C1 (stereo partly specified)
- AC50 [1]: 25.1 µM [rising, single point]

Structure (SMILES): COc1ccc(CN(Cc2ccc(OC)cc2)S(=O)(=O)c2ccc(-n3cnnn3)c(C)c2)cc1
- AC50 [2]: 22.4 µM [rising, partial curve, poor fit]

Structure (SMILES): COc1ccc(NC(=O)Cc2ccc(-c3ccccc3)cc2)cn1
- AC50 [2]: 2.82 µM [rising, full curve]

Structure (SMILES): CCCCC(=O)Nc1cc(-c2nc3cccnc3s2)ccc1C
- AC50 [1]: 35.5 µM [falling, single point]
- AC50 [2]: 35.5 µM [falling, single point]

Structure (SMILES): O=S(=O)(c1ccccc1)c1ccc(NCc2ccco2)cc1
- AC50 [1]: 14.1 µM [rising, partial curve]
- AC50 [2]: 15.8 µM [rising, single point]

Structure (SMILES): O=C1/C(=C/c2ccc(N3CCCC3)cc2)NC(=S)N1C1CC1
- AC50 [1]: 22.4 µM [rising, single point]

Structure (SMILES): O=C(NC1CCN(Cc2ccccc2)CC1)C1CCN(c2nnc(-n3cccc3)s2)CC1
- AC50 [2]: 25.1 µM [rising, single point]

Structure (SMILES): Cc1cc2c(cc1S(=O)(=O)NCc1ccccc1)OCC(=O)N2
- AC50 [2]: 35.5 µM [rising, single point]

Structure (SMILES): CSc1ccc(CN(C)CC(=O)NCc2ccc(F)cc2)cc1
- AC50 [2]: 6.31 µM [falling, single point]

Structure (SMILES): CCNc1ncc2nc(-c3cccs3)c(=O)n(CCC#N)c2n1
- AC50 [1]: 0.316 µM [falling, full curve, poor fit]

Structure (SMILES): CSc1nsc(SCC(=O)N2CCN(c3ccccc3)CC2)n1
- AC50 [2]: 14.1 µM [rising, single point]

Structure (SMILES): CC(C)(C)c1ccc(C(=O)Nc2ccc(C(=O)OCc3cc(=O)n4ccsc4n3)cc2)cc1
- AC50 [1]: 14.1 µM [falling, single point]
- AC50 [2]: 15.8 µM [falling, single point]

Structure (SMILES): CC(C)=CCC/C(C)=C/C=C/C(C)=C/C=C/C(C)=C/C=C/C=C(C)/C=C/C=C(C)/C=C/C=C(\C)CCC=C(C)C
- AC50 [1]: 11.2 µM [rising, partial curve]
- AC50 [2]: 11.2 µM [rising, partial curve]

Structure (SMILES): O=C(c1ccco1)N1CCN(Cc2cn[nH]c2-c2ccc(F)cc2F)CC1
- AC50 [2]: 2.51 µM [falling, partial curve, poor fit]

Structure (SMILES): O=c1c2sccc2nc(SCc2cc(=O)n3ccccc3n2)n1Cc1ccccn1
- AC50 [2]: 35.5 µM [rising, single point]

Structure (SMILES): CC1=C(/C=C/C(C)=C/C=C/C(C)=C/C(=O)O)C(C)(C)CCC1
- AC50 [1]: 0.0158 µM [falling, single point]

Structure (SMILES): CCCCCCCCCCC(=O)NNC(=O)c1c(O)c2ccccc2n(CC)c1=O
- AC50 [1]: 0.0398 µM [rising, full curve, poor fit]
- AC50 [2]: 2.82 µM [rising, full curve]

Structure (SMILES): CCN(C(=O)CCS(=O)(=O)c1ccc2c(c1)oc(=O)n2C)c1ccc(OC)cc1
- AC50 [1]: 1.78 µM [falling, full curve, poor fit]
- AC50 [2]: 1.41 µM [falling, full curve]

Structure (SMILES): Cc1ccc(OC(C)C(=O)Nc2ccc(C)c(S(=O)(=O)Nc3ccc(C)cc3C)c2)cc1 (stereo unspecified)
- AC50 [1]: 15.8 µM [rising, single point]
- AC50 [2]: 31.6 µM [rising, single point]

Structure (SMILES): COc1ccc(N2CC(O)=C(c3nc(-c4ccc(Br)cc4)cs3)C2=N)cc1
- AC50 [1]: 10 µM [falling, partial curve]

Structure (SMILES): Cc1ccccc1NS(=O)(=O)c1ccc2c(c1)NC(=O)CCS2
- AC50 [1]: 0.0562 µM [falling, full curve, poor fit]
- AC50 [2]: 0.0316 µM [falling, full curve, poor fit]

— PubChem BioAssay AID1487 (National Center for Advancing Translational Sciences (NCATS), 2009)
